The values below come from PubChem BioAssay (NCATS).

Structures are written as SMILES. Values joined by “and” are separate entries in the source; they are usually repeats but may differ in a detail not shown here. Identical values can stand only once. The list shows a part of the results. The main result of the screen is listed elsewhere. These columns were measured beside it and carry no call. Compounds called inactive in the main read-out are mostly missing here. For some assays here: Potencies come from curve fits of mixed quality, noted in brackets.

The nature of experiment [1]: qHTS assay for small molecule antagonists of androgen receptor signaling (AID 588516). The note with it: AR-UAS-bla HEK293, beta-lactamase ratio, antagonist mode, 16 h. The method, boiled down:
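Cells were plated and incubated 5 h, compounds added in titration, then R1881 (10 nM final) as agonist. After 16 h at 37 C, CCF4 substrate was loaded for 2 h at room temperature and fluorescence measured.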

Experiment [2] in a line: qHTS assay for small molecule antagonists of glucocorticoid receptor signaling (AID 588533). To be noted: HeLa MMTV-bla, GRE beta-lactamase ratio, antagonist mode, 18 h; measured here: W530 channel AC50.
Experiment [3] in a line: qHTS assay for small molecule antagonists of peroxisome proliferator-activated receptor delta signaling (AID 588535).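 Also: cells co-treated with a PPAR-delta agonist as stimulator during compound exposure.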 To be noted: HEK293T PPARd-UAS-bla, beta-lactamase FRET ratio, 18 h; 460 nm channel. Put shortly: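 HEK293T PPAR-delta-UAS-bla cells, 4000/well, 2% charcoal/dextran FBS; 5 h 37 C; cpd titration; 18 h 37 C; CCF4 2 h RT; FI 460/530 nm; Hill fit → IC50, efficacy.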

The nature of experiment [4]: qHTS assay for small molecule antagonists of peroxisome proliferator-activated receptor gamma signaling (AID 588537). To be noted: HEK293 PPARg-UAS-bla, beta-lactamase ratio, antagonist mode; measured here: W460 blue channel. The method, boiled down:
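Antagonist mode, beta-lactamase reporter in HEK293; charcoal/dextran FBS 1%; 3000 cells/well, 37 C 6-6.5 h; cpd titration + rosiglitazone 50 nM final, 16 h 37 C; CCF4, 2 h RT; 460/530 nm; Hill fit → IC50, efficacy.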

Experiment [5] is described as follows: qHTS assay for small molecule antagonists of vitamin D receptor signaling (AID 588541). To be noted: HEK293T VDR-UAS-bla, beta-lactamase ratio, antagonist mode; measured here: W460 blue channel (cell viability).
Experiment [6] in a line: qHTS assay for small molecule agonists of retinoid X receptor alpha signaling (AID 588544). The note with it: HEK293T RXRa-UAS-bla, beta-lactamase reporter, 18 h; 530 nm emission.
Experiment [7] can be described thus: qHTS assay for small molecule antagonists of retinoid X receptor alpha signaling (AID 588546).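 Also: cells stimulated with 9-cis-retinoic acid as agonist; % is scaled to controls: 0 for no effect and ±100 for the full control effect.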 The note with it: HEK293T RXRa-UAS-bla, beta-lactamase ratio, antagonist mode; measured here: W530 green channel, cytotoxicity proxy. Put shortly:
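Beta-lactamase reporter inhibition, read as CCF4 fluorescence ratio (ex 405, em 460/530 nm) after 2 h at RT. HEK293T UAS-bla cells, 2500/well, were stimulated with 9-cis-RA at 500 or 100 nM final alongside test compound for 18 h at 37 C.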

Experiment [8] in a line: Nrf2 qHTS screen for inhibitors: Validation (AID 493153). The note with it: A549 ARE-Fluc reporter, 18-24 h; AC50: CellTiter-Fluor fluorescence read, measured here: cytotoxicity CellTiter-Fluor AC50; viability change: measured here: cytotoxicity max response. The method, boiled down:
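Luminescence from an ARE-firefly luciferase reporter in A549 cells gives Nrf2 inhibition; an earlier CellTiter-Fluor fluorescent read flags cytotoxicity. Cells in 5% FBS OPTI-MEM received compound dilution series for 18-24 h at 37°C.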

Where [9] appears, read: measured here: W460 blue channel fit.
Setting [10] is: measured here: W530 green channel, cytotoxicity/artifact.

For `O=[N+]([O-])c1cc([N+](=O)[O-])c2ccccc2c1`, the AC50 in experiment [1] (setting [9]) was 0.00398 µM [falling, full curve, poor fit].

Regarding `CN(c1c(Br)cc(Br)cc1Br)c1c([N+](=O)[O-])cc([N+](=O)[O-])cc1C(F)(F)F`, the AC50 in experiment [1] (setting [9]) is 31.6 µM [falling, partial curve, poor fit]; in experiment [1] (setting [10]), 25.1 µM [rising, full curve, poor fit]; in experiment [2], 7.08 µM [falling, partial curve]; in experiment [4] it was 50.1 µM [falling, partial curve, poor fit]; in experiment [5] it was 35.5 µM [falling, partial curve, poor fit]. In addition, the max response in experiment [3] is -95.6%; in experiment [6], -18.3%.

On to `[Cl][Sn]([c]1ccccc1)([c]1ccccc1)[c]1ccccc1`, for which the half-maximal activity concentration (AC50) is 3.55 µM [falling, full curve] in experiment [1] (setting [9]); 1.58 µM [rising, full curve] in experiment [1] (setting [10]); 50.1 µM [falling, partial curve, poor fit] in experiment [2]; 3.98 µM [falling, full curve] in experiment [4]. Moreover, the max response in experiment [3] was -89.2%; in experiment [7], -52.9%.

With `CC(=O)[C@@]1(O)CC[C@H]2[C@@H]3CCC4=CC(=O)CC[C@]4(C)[C@H]3CC[C@@]21C`, in experiment [8], the viability change came to 4.6%. Besides, the half-maximal activity concentration (AC50) in experiment [2] is 7.08 µM [rising, single point].

In the case of `C=CC(=O)OCC(CC)(COC(=O)C=C)COC(=O)C=C`, the half-maximal activity concentration (AC50) is 50.1 µM [falling, single point] in experiment [1] (setting [9]); 39.8 µM [rising, partial curve] in experiment [1] (setting [10]); 25.1 µM [falling, full curve] in experiment [5]. Besides, the figures for the max response in experiment [3] and in experiment [6] were -87% and 22.9%, respectively.

In the case of `C[C@@H]1CC[C@@]2(OC1)O[C@H]1[C@@H](O)[C@H]3[C@@H]4CC[C@H]5C[C@@H](O[C@@H]6O[C@H](CO)[C@H](O[C@@H]7O[C@H](CO)[C@@H](O)[C@H](O[C@@H]8OC[C@@H](O)[C@H](O)[C@H]8O)[C@H]7O[C@@H]7O[C@H](CO)[C@@H](O)[C@H](O[C@@H]8O[C@H](CO)[C@@H](O)[C@H](O)[C@H]8O)[C@H]7O)[C@H](O)[C@H]6O)[C@H](O)C[C@]5(C)[C@H]4CC[C@]3(C)[C@H]1[C@@H]2C`, the concentration at half-maximal activity (AC50) in experiment [1] (setting [9]) was 22.4 µM [falling, partial curve]; in experiment [1] (setting [10]) it was 17.8 µM [falling, full curve]; in experiment [2], 35.5 µM [falling, partial curve]; in experiment [4], 39.8 µM [falling, partial curve]; in experiment [5], 44.7 µM [falling, partial curve, poor fit]. For the same molecule, the max response in experiment [3] is -80.7%; in experiment [6], -63.7%; in experiment [7] it was -42.7%.

Consider `CC(COc1ccccc1)N(CCCl)Cc1ccccc1` (configuration not stated), for which, in experiment [8], the viability change is -5.14%. Also, in experiment [3], the max response was 40% and 68.2%. In addition, the concentration at half-maximal activity (AC50) in experiment [4] was 70.8 µM [rising, single point] and 1.41 nM [falling, full curve, poor fit].

Consider `O=Nc1ccc(Nc2ccccc2)cc1`, for which the half-maximal activity concentration (AC50) was 50.1 µM [falling, partial curve, poor fit] and 44.7 µM [falling, partial curve, poor fit] in experiment [1] (setting [9]); 44.7 µM [rising, single point] and 44.7 µM [rising, partial curve] in experiment [1] (setting [10]); 50.1 µM [falling, partial curve, poor fit] in experiment [4]; 25.1 µM [falling, full curve, poor fit] and 22.4 µM [falling, full curve] in experiment [5]. Besides, the max response in experiment [3] was -52.7% and -81.2%; in experiment [6], 43.4% and -3.82%; in experiment [7] it was 54.6% and -34.6%.

Turning to `CCOP(=O)(OCC)SCS(=O)(=O)C(C)(C)C`, in experiment [1] (setting [9]), the half-maximal activity concentration (AC50) is 28.2 µM [rising, single point].

`C=CC(=O)OCC(CO)(COC(=O)C=C)COC(=O)C=C`: the concentration at half-maximal activity (AC50) is 22.4 µM [falling, partial curve] and 15.8 µM [falling, full curve] in experiment [1] (setting [9]); 22.4 µM [rising, full curve] and 35.5 µM [rising, partial curve] in experiment [1] (setting [10]); 22.4 µM [falling, full curve] and 31.6 µM [falling, partial curve] in experiment [4]; 10 µM [falling, full curve] and 8.91 µM [falling, full curve] in experiment [5]. Moreover, the max response was -65.1% and -57.4% in experiment [3]; -18.8% and -5.32% in experiment [6]; 18.5% in experiment [7].

With `CCOc1cc(C(C)(C)C)ccc1C1COC(c2c(F)cccc2F)=N1` (configuration not stated), the AC50 is 63.1 µM [falling, single point] in experiment [1] (setting [9]) and 35.5 µM [rising, partial curve] in experiment [1] (setting [10]). For the same molecule, the max response in experiment [6] is 14.5%; in experiment [7], -14.1%.

Turning to `CCCCCCCCCCCCC1=C(OC(C)=O)C(=O)c2ccccc2C1=O`, the AC50 in experiment [1] (setting [9]) was 25.1 µM [falling, single point]; in experiment [1] (setting [10]) it was 28.2 µM [rising, single point]. Besides, the max response is -74% in experiment [3] and 3.72% in experiment [7].

With `Cc1ccc(-c2c(Cl)nc(C#N)n2S(=O)(=O)N(C)C)cc1`, the AC50 in experiment [1] (setting [9]) was 2.51 µM [rising, partial curve]; in experiment [1] (setting [10]), 44.7 µM [rising, single point]; in experiment [2] it was 5.62 µM [rising, partial curve, poor fit]; in experiment [5], 0.891 µM [rising, full curve, poor fit]. Moreover, the max response is -16.3% in experiment [3], 30.9% in experiment [6] and 20% in experiment [7].
